# Reference: the supplement of paper PMC8728848
# The list shows a part of the results.
# B1: FliC (Clostridium difficile) (protein)
# chain: MRVNTNVSALIANNQMGRNVNGQSKSMEKLSSGVRIKRAADDAAGLAISEKMRAQIKGLDQAGRNVQDGISVVQTAEGSLEETGNILQRMRTLSLQSANEINNTEEREKIADELTQLKDEIERISSSTEFNGKKLLDGTSSTIRLQVGASYGTNVSGTSNNNNEIKIQLVNTASIMASAGITTASIGSMKAGGTTGTDAAKTMVSSLDAALKSLNSSRAKLGAQQNRLESTQNNLNNTLENVTAAESRIRDTDVASEMVNLSKMNILVQASQSMLAQANQQPQGVLQLLG
# Assays:
# Test in all cases: glycan array binding signal (z-score within array); higher = stronger binding
# Conditions in all cases: glycan notation: IUPAC condensed, linker removed
# [1] = target: GlcNAc(b1-2)[GlcNAc(b1-4)]Man(a1-3)[GlcNAc(b1-4)][GlcNAc(b1-2)[GlcNAc(b1-6)]Man(a1-6)]Man(b1-4)GlcNAc(b1-4)[Fuc(a1-6)]GlcNAc
# Summary of the method: (§1)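 The Consortium for Functional Glycomics database supplied 3228 glycan arrays, of which those lacking an available protein sequence were dropped. The binding signal, a within-array Z-score, was averaged across arrays of the same protein sequence and across linkers. Negative scores can be read as non-binding.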
# [2] = target: GlcNAc(b1-2)[GlcNAc(b1-6)]Man(a1-6)[GlcNAc(b1-2)Man(a1-3)]Man(b1-4)GlcNAc(b1-4)GlcNAc
# Summary of the method: as §1
# [3] = target: GlcNAc(b1-2)[GlcNAc(b1-6)]Man(a1-6)[GlcNAc(b1-2)Man(a1-3)]Man(b1-4)GlcNAc(b1-4)[Fuc(a1-6)]GlcNAc
# Summary of the method: as §1
# [4] = target: GlcNAc(b1-2)[GlcNAc(b1-6)]Man(a1-6)[GlcNAc(b1-4)][GlcNAc(b1-2)Man(a1-3)]Man(b1-4)GlcNAc(b1-4)GlcNAc
# Summary of the method: as §1
# [5] = target: GlcNAc(b1-3)Fuc
# Summary of the method: as §1
# [6] = target: GlcNAc(b1-3)Gal
# Summary of the method: as §1
# [7] = target: GlcNAc(b1-3)Gal(b1-3)GalNAc
# Summary of the method: as §1
# [8] = target: GlcNAc(b1-3)Gal(b1-4)Glc
# Summary of the method: as §1
# [9] = target: GlcNAc(b1-3)Gal(b1-4)GlcNAc
# Summary of the method: as §1
# [10] = target: GlcNAc(b1-3)Gal(b1-4)GlcNAc(b1-2)Man(a1-3)[GlcNAc(b1-3)Gal(b1-4)GlcNAc(b1-2)Man(a1-6)]Man(b1-4)GlcNAc(b1-4)GlcNAc
# Summary of the method: as §1
# [11] = target: GlcNAc(b1-3)Gal(b1-4)GlcNAc(b1-2)Man(a1-3)[GlcNAc(b1-3)Gal(b1-4)GlcNAc(b1-2)Man(a1-6)]Man(b1-4)GlcNAc(b1-4)[Fuc(a1-6)]GlcNAc
# Summary of the method: as §1
# [12] = target: GlcNAc(b1-3)Gal(b1-4)GlcNAc(b1-2)[GlcNAc(b1-3)Gal(b1-4)GlcNAc(b1-6)]Man(a1-6)[GlcNAc(b1-3)Gal(b1-4)GlcNAc(b1-2)Man(a1-3)]Man(b1-4)GlcNAc(b1-4)GlcNAc
# Summary of the method: as §1
# [13] = target: GlcNAc(b1-3)Gal(b1-4)GlcNAc(b1-3)Gal(b1-4)GlcNAc
# Summary of the method: as §1
# [14] = target: GlcNAc(b1-3)Gal(b1-4)GlcNAc(b1-3)Gal(b1-4)GlcNAc(b1-2)Man(a1-3)[GlcNAc(b1-3)Gal(b1-4)GlcNAc(b1-3)Gal(b1-4)GlcNAc(b1-2)Man(a1-6)]Man(b1-4)GlcNAc(b1-4)GlcNAc
# Summary of the method: as §1
# [15] = target: GlcNAc(b1-3)Gal(b1-4)GlcNAc(b1-3)Gal(b1-4)GlcNAc(b1-2)Man(a1-3)[GlcNAc(b1-3)Gal(b1-4)GlcNAc(b1-3)Gal(b1-4)GlcNAc(b1-2)Man(a1-6)]Man(b1-4)GlcNAc(b1-4)[Fuc(a1-6)]GlcNAc
# Summary of the method: as §1
# [16] = target: GlcNAc(b1-3)Gal(b1-4)GlcNAc(b1-3)Gal(b1-4)GlcNAc(b1-2)[GlcNAc(b1-3)Gal(b1-4)GlcNAc(b1-3)Gal(b1-4)GlcNAc(b1-6)]Man(a1-6)[GlcNAc(b1-3)Gal(b1-4)GlcNAc(b1-3)Gal(b1-4)GlcNAc(b1-2)Man(a1-3)]Man(b1-4)GlcNAc(b1-4)[Fuc(a1-6)]GlcNAc
# Summary of the method: as §1
# [17] = target: GlcNAc(b1-3)Gal(b1-4)GlcNAc(b1-3)Gal(b1-4)GlcNAc(b1-3)Gal(b1-4)GlcNAc(b1-2)Man(a1-3)[GlcNAc(b1-3)Gal(b1-4)GlcNAc(b1-3)Gal(b1-4)GlcNAc(b1-3)Gal(b1-4)GlcNAc(b1-2)Man(a1-6)]Man(b1-4)GlcNAc(b1-4)GlcNAc
# Summary of the method: as §1
# [18] = target: GlcNAc(b1-3)Gal(b1-4)GlcNAc(b1-3)Gal(b1-4)GlcNAc(b1-3)Gal(b1-4)GlcNAc(b1-2)Man(a1-3)[GlcNAc(b1-3)Gal(b1-4)GlcNAc(b1-3)Gal(b1-4)GlcNAc(b1-3)Gal(b1-4)GlcNAc(b1-2)Man(a1-6)]Man(b1-4)GlcNAc(b1-4)[Fuc(a1-6)]GlcNAc
# Summary of the method: as §1
# [19] = target: GlcNAc(b1-3)Gal(b1-4)GlcNAc(b1-3)Gal(b1-4)GlcNAc(b1-3)Gal(b1-4)GlcNAc(b1-2)[GlcNAc(b1-3)Gal(b1-4)GlcNAc(b1-3)Gal(b1-4)GlcNAc(b1-3)Gal(b1-4)GlcNAc(b1-6)]Man(a1-6)[GlcNAc(b1-3)Gal(b1-4)GlcNAc(b1-3)Gal(b1-4)GlcNAc(b1-3)Gal(b1-4)GlcNAc(b1-2)Man(a1-3)]Man(b1-4)GlcNAc(b1-4)[Fuc(a1-6)]GlcNAc
# Summary of the method: as §1
# [20] = target: GlcNAc(b1-3)Gal(b1-4)GlcNAc(b1-3)Gal(b1-4)GlcNAc(b1-3)Gal(b1-4)GlcNAc(b1-3)Gal(b1-4)GlcNAc(b1-2)Man(a1-3)[GlcNAc(b1-3)Gal(b1-4)GlcNAc(b1-3)Gal(b1-4)GlcNAc(b1-3)Gal(b1-4)GlcNAc(b1-3)Gal(b1-4)GlcNAc(b1-2)Man(a1-6)]Man(b1-4)GlcNAc(b1-4)GlcNAc
# Summary of the method: as §1
# [21] = target: GlcNAc(b1-3)Gal(b1-4)GlcNAc(b1-3)Gal(b1-4)GlcNAc(b1-3)Gal(b1-4)GlcNAc(b1-3)Gal(b1-4)GlcNAc(b1-2)Man(a1-3)[GlcNAc(b1-3)Gal(b1-4)GlcNAc(b1-3)Gal(b1-4)GlcNAc(b1-3)Gal(b1-4)GlcNAc(b1-3)Gal(b1-4)GlcNAc(b1-2)Man(a1-6)]Man(b1-4)GlcNAc(b1-4)[Fuc(a1-6)]GlcNAc
# Summary of the method: as §1
# [22] = target: GlcNAc(b1-3)Gal(b1-4)GlcNAc(b1-3)Gal(b1-4)GlcNAc(b1-3)Gal(b1-4)GlcNAc(b1-3)Gal(b1-4)GlcNAc(b1-2)[GlcNAc(b1-3)Gal(b1-4)GlcNAc(b1-3)Gal(b1-4)GlcNAc(b1-3)Gal(b1-4)GlcNAc(b1-3)Gal(b1-4)GlcNAc(b1-6)]Man(a1-6)[GlcNAc(b1-3)Gal(b1-4)GlcNAc(b1-3)Gal(b1-4)GlcNAc(b1-3)Gal(b1-4)GlcNAc(b1-3)Gal(b1-4)GlcNAc(b1-2)Man(a1-3)]Man(b1-4)GlcNAc(b1-4)[Fuc(a1-6)]GlcNAc
# Summary of the method: as §1
# [23] = target: GlcNAc(b1-3)Gal(b1-4)GlcNAc(b1-3)Gal(b1-4)GlcNAc(b1-3)GalNAc
# Summary of the method: as §1
# [24] = target: GlcNAc(b1-3)Gal(b1-4)GlcNAc(b1-3)GalNAc
# Summary of the method: as §1
# [25] = target: GlcNAc(b1-3)Gal(b1-4)GlcNAc(b1-3)[GlcNAc(b1-3)Gal(b1-4)GlcNAc(b1-3)]GalNAc
# Summary of the method: as §1
# [26] = target: GlcNAc(b1-3)Gal(b1-4)GlcNAc(b1-6)[Gal(b1-3)]GalNAc
# Summary of the method: as §1
# [27] = target: GlcNAc(b1-3)Gal(b1-4)GlcNAc(b1-6)[GlcNAc(b1-3)Gal(b1-3)]GalNAc
# Summary of the method: as §1
# [28] = target: GlcNAc(b1-3)Gal(b1-4)GlcNAc(b1-6)[GlcNAc(b1-3)]Gal(b1-4)GlcNAc
# Summary of the method: as §1
# [29] = target: GlcNAc(b1-3)GalNAc
# Summary of the method: as §1
# [30] = target: GlcNAc(b1-3)Man
# Summary of the method: as §1
# [31] = target: GlcNAc(b1-3)[GlcNAc(b1-4)][GlcNAc(b1-6)]GlcNAc
# Summary of the method: as §1
# [32] = target: GlcNAc(b1-3)[GlcNAc(b1-6)]Gal(b1-4)GlcNAc
# Summary of the method: as §1
# [33] = target: GlcNAc(b1-3)[GlcNAc(b1-6)]GalNAc
# Summary of the method: as §1
# [34] = target: GlcNAc(b1-4)Gal(b1-4)GlcNAc
# Summary of the method: as §1
# [35] = target: GlcNAc(b1-4)GlcNAc
# Summary of the method: as §1
# [36] = target: GlcNAc(b1-4)GlcNAc(b1-4)GlcNAc
# Summary of the method: as §1
# [37] = target: GlcNAc(b1-4)GlcNAc(b1-4)GlcNAc(b1-4)GlcNAc(b1-4)GlcNAc
# Summary of the method: as §1
# [38] = target: GlcNAc(b1-4)GlcNAc(b1-4)GlcNAc(b1-4)GlcNAc(b1-4)GlcNAc(b1-4)GlcNAc
# Summary of the method: as §1
binder,measurement,setting,value
B1,glycan array binding signal (z-score),[1],-0.765
same,glycan array binding signal (z-score),[2],-0.039
same,glycan array binding signal (z-score),[3],0.19
same,glycan array binding signal (z-score),[4],-0.459
same,glycan array binding signal (z-score),[5],-0.83
same,glycan array binding signal (z-score),[6],-0.334
same,glycan array binding signal (z-score),[7],-0.179
same,glycan array binding signal (z-score),[8],-0.085
same,glycan array binding signal (z-score),[9],-0.45
same,glycan array binding signal (z-score),[10],-0.26
same,glycan array binding signal (z-score),[11],0.034
same,glycan array binding signal (z-score),[12],3
same,glycan array binding signal (z-score),[13],-0.294
same,glycan array binding signal (z-score),[14],0.372
same,glycan array binding signal (z-score),[15],1.04
same,glycan array binding signal (z-score),[16],0.567
same,glycan array binding signal (z-score),[17],0.067
same,glycan array binding signal (z-score),[18],-0.149
same,glycan array binding signal (z-score),[19],-0.165
same,glycan array binding signal (z-score),[20],-0.244
same,glycan array binding signal (z-score),[21],-0.369
same,glycan array binding signal (z-score),[22],0.167
same,glycan array binding signal (z-score),[23],-0.501
same,glycan array binding signal (z-score),[24],-0.25
same,glycan array binding signal (z-score),[25],-0.998
same,glycan array binding signal (z-score),[26],-0.452
same,glycan array binding signal (z-score),[27],-0.342
same,glycan array binding signal (z-score),[28],-0.604
same,glycan array binding signal (z-score),[29],-0.216
same,glycan array binding signal (z-score),[30],-0.124
same,glycan array binding signal (z-score),[31],-0.972
same,glycan array binding signal (z-score),[32],-0.057
same,glycan array binding signal (z-score),[33],0.144
same,glycan array binding signal (z-score),[34],-0.756
same,glycan array binding signal (z-score),[35],-0.102
same,glycan array binding signal (z-score),[36],-0.293
same,glycan array binding signal (z-score),[37],0.186
same,glycan array binding signal (z-score),[38],-0.253

# Reprinted at random: two records from the list
binder,measurement,setting,value
B1,glycan array binding signal (z-score),[9],-0.45
same,glycan array binding signal (z-score),[13],-0.294
